Experimental data reported in the supplement of paper PMC10849652.
The other results are listed elsewhere or left out.

Protein sequences, listed by entry. Tags and fused reporters are not part of them. Lines headed by an entry give the natural chain unless they say otherwise; changes in a name come on top.
UniProt P61024, whole entry, looked up: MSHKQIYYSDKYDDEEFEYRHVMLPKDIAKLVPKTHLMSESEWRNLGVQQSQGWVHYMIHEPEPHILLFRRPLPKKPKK
UniProt Q9NZZ3: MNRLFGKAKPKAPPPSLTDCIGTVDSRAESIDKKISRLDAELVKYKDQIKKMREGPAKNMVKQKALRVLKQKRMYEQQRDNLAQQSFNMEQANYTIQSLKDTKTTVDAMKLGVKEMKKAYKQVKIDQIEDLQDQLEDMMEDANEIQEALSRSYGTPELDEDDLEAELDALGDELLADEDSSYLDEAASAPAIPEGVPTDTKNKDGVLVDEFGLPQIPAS
UniProt Q12873: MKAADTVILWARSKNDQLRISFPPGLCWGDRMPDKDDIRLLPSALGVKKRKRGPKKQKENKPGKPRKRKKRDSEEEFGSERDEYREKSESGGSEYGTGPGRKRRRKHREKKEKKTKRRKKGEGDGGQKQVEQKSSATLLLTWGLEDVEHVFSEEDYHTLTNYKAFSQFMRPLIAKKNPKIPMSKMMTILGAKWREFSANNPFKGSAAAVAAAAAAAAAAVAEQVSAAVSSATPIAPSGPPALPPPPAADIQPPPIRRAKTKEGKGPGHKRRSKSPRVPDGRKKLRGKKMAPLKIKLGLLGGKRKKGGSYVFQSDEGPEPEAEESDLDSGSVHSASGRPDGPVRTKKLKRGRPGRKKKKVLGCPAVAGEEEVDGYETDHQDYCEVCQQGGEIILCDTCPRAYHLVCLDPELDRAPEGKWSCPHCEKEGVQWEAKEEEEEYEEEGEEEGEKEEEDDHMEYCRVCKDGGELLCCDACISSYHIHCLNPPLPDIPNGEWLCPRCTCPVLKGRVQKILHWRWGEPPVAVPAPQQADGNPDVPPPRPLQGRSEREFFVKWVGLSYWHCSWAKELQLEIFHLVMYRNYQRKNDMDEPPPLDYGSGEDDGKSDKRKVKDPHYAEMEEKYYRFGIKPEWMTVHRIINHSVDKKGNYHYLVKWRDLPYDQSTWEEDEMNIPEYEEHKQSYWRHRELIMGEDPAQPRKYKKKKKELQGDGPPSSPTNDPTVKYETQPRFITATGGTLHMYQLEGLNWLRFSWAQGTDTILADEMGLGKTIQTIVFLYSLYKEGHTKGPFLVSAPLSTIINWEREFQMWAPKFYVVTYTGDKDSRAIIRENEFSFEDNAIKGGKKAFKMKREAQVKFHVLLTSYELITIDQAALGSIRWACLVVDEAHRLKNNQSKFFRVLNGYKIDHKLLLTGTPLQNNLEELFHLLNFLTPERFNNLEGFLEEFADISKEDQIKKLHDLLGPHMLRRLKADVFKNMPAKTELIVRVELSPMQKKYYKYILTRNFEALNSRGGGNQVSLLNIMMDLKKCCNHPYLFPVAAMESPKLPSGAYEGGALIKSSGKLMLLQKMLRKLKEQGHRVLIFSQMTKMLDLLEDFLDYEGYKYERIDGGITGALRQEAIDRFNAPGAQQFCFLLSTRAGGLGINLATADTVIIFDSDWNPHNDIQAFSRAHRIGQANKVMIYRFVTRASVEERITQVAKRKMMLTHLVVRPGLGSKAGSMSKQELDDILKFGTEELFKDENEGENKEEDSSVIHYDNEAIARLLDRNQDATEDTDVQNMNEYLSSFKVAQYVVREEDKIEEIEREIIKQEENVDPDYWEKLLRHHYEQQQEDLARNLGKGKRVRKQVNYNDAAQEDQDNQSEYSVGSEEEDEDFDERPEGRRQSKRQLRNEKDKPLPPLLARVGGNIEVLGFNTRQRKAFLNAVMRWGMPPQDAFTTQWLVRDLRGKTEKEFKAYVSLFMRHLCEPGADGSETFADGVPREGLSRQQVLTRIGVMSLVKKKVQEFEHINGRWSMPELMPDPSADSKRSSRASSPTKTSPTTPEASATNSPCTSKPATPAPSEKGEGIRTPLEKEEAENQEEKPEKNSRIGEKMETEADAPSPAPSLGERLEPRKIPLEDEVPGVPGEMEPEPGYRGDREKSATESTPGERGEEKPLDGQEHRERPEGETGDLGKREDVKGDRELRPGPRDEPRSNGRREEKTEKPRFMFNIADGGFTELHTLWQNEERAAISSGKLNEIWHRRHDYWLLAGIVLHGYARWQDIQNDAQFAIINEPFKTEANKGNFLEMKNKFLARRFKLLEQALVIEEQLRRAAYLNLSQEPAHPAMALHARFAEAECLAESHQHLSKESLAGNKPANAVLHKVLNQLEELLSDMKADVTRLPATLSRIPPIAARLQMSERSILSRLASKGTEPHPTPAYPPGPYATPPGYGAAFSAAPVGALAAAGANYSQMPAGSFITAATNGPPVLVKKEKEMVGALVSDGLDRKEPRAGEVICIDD
UniProt Q8N1G2: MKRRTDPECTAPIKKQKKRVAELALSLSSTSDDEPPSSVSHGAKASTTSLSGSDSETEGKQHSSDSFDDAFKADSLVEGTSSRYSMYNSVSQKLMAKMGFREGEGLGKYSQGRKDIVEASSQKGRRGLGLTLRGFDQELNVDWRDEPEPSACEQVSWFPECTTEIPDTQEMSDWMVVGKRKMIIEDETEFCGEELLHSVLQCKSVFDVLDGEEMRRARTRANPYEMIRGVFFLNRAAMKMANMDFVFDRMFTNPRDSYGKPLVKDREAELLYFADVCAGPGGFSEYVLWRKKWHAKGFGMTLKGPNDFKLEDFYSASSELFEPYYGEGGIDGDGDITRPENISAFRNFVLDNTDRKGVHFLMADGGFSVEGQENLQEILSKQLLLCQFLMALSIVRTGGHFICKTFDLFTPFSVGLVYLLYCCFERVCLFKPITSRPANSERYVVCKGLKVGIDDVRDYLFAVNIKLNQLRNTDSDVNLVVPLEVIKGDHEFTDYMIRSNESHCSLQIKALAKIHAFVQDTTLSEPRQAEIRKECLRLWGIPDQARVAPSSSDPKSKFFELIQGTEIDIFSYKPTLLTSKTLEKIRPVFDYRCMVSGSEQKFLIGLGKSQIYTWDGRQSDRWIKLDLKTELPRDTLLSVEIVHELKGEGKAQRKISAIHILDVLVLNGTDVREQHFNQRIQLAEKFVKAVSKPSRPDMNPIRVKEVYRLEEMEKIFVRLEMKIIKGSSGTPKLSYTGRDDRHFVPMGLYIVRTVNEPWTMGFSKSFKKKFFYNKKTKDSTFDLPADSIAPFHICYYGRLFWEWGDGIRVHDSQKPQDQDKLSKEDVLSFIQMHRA
UniProt Q9ULV3: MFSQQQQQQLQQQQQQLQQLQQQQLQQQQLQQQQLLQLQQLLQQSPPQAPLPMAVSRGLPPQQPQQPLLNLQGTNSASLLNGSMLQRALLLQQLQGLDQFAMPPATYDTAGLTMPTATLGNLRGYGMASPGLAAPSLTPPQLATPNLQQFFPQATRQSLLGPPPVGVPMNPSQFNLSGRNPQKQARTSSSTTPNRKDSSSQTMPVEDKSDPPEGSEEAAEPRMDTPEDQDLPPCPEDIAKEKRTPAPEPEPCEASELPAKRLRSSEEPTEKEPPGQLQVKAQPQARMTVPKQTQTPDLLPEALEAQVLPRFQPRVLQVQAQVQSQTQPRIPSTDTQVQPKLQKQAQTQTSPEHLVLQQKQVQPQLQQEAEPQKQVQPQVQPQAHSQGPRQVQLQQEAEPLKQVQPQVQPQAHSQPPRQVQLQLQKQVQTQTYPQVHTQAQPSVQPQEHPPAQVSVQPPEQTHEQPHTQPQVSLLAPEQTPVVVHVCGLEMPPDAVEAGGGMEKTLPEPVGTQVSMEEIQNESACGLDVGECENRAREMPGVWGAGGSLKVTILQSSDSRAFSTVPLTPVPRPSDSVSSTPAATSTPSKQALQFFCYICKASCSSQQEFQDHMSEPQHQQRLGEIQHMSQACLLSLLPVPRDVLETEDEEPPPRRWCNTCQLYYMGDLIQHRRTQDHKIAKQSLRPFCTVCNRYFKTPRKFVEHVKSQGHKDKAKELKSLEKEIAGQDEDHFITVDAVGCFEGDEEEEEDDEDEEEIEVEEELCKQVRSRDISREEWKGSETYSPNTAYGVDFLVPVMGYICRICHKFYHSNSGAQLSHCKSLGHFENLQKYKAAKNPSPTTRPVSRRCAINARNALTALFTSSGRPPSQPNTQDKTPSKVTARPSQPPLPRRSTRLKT
UniProt Q8WUX9: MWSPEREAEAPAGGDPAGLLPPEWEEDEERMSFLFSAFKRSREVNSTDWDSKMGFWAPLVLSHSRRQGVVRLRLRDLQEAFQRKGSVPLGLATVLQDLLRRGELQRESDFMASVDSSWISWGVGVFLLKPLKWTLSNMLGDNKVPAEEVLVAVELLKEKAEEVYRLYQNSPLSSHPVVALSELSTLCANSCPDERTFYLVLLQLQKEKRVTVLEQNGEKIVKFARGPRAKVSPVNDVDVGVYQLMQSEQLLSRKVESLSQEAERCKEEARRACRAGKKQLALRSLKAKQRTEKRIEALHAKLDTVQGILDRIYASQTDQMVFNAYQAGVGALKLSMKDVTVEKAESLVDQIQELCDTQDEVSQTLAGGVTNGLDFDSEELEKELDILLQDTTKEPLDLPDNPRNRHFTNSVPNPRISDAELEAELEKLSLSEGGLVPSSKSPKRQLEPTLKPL
UniProt Q86WJ1: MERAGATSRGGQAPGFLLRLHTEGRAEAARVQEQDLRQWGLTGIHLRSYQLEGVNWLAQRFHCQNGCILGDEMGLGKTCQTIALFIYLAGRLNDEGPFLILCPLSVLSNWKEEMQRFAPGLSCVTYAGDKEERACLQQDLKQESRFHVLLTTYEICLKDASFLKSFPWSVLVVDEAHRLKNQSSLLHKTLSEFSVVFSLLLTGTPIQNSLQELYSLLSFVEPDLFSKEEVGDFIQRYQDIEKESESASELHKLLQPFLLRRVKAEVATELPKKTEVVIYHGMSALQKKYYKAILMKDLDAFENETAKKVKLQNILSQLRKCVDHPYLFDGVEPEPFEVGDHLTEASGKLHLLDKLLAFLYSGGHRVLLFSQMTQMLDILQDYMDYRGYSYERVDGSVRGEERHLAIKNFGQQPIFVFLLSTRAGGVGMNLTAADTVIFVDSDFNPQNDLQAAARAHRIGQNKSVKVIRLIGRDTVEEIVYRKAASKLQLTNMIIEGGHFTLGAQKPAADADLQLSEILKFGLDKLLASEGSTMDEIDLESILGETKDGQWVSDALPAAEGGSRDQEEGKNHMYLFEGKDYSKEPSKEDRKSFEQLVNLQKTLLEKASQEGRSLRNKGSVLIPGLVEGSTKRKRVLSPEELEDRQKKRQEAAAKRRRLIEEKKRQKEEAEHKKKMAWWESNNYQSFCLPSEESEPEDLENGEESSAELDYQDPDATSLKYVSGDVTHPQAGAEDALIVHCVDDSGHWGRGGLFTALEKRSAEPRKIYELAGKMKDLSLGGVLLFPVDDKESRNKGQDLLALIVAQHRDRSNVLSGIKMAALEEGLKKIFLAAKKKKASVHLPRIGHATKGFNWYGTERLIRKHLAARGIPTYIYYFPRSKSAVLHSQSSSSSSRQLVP
UniProt Q9NX76: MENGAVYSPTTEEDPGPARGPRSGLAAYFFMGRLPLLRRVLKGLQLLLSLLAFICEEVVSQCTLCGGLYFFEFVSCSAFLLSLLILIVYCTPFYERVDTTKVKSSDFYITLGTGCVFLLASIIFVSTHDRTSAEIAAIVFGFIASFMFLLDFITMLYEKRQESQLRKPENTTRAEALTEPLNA
UniProt Q9Y6H1: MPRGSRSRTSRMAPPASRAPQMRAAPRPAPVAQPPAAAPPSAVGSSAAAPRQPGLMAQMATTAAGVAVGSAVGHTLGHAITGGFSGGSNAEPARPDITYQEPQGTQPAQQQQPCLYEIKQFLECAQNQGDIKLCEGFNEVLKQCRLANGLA
UniProt Q9BUK0: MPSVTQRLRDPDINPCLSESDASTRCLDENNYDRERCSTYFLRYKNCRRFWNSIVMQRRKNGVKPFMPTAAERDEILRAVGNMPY
UniProt O14757: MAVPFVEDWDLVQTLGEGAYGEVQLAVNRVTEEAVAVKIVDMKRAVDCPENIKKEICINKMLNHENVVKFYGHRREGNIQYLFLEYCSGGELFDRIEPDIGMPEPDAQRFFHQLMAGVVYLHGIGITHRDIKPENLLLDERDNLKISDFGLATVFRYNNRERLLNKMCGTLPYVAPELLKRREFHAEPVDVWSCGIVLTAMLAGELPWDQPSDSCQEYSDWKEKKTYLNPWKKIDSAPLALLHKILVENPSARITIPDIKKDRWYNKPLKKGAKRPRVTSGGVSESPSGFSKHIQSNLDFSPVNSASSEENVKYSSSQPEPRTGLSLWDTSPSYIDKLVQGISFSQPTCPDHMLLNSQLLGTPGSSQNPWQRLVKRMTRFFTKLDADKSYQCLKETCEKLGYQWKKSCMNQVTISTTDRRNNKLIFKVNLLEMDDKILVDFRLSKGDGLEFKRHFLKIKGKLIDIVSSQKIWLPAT
UniProt Q9H5X1: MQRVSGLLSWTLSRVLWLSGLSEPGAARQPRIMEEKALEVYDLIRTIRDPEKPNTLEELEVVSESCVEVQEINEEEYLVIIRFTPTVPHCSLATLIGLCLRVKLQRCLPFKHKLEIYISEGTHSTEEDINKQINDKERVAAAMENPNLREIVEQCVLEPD

Legend:
Experiment in all cases: log2 fold change, soluble protein after heating vs DMSO (PISA); higher = thermal stabilisation; K562 lysate, 10 uM; active = over 0.2 and 3.5 SD of the protein, either way, in both replicates (recomputed)
lapatinib = compound: CS(=O)(=O)CCNCc1ccc(-c2ccc3ncnc(Nc4ccc(OCc5cccc(F)c5)c(Cl)c4)c3c2)o1 [lapatinib]
Method in brief: (§1)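 Thermal stability, expressed as log-two fold change relative to solvent controls, is given from duplicates. Crude K562 extract in PBS pH 7.4 with 1 mM MgCl2, at 1 mg/mL protein, was treated with 10 μM compound for 30 min and heated in aliquots for 3 min across 48°C-58°C. After pooling, adjustment to 0.5% NP-40 at 4°C and centrifugation at 21,000xg for 90 min, supernatant protein was measured by TMTpro 16plex LC-MS/MS with channel sums equalised.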

pictilisib = compound: CS(=O)(=O)N1CCN(Cc2cc3nc(-c4cccc5[nH]ncc45)nc(N4CCOCC4)c3s2)CC1 [pictilisib]
Method in brief: as §1

crizotinib = compound: C[C@@H](Oc1cc(-c2cnn(C3CCNCC3)c2)cnc1N)c1c(Cl)ccc(F)c1Cl [crizotinib]
Method in brief: as §1

[1] = compound: C[C@H](C1=CC=C(C=C1)C(=O)NC2=C3C=CNC3=NC=C2)N
Method in brief: as §1

duvelisib = compound: C[C@H](Nc1ncnc2nc[nH]c12)c1cc2cccc(Cl)c2c(=O)n1-c1ccccc1 [duvelisib]
Method in brief: as §1

gandotinib = compound: Cc1cc(Nc2cc(CN3CCOCC3)c3nc(C)c(Cc4ccc(Cl)cc4F)n3n2)n[nH]1 [gandotinib]
Method in brief: as §1

tozasertib = compound: Cc1cc(Nc2cc(N3CCN(C)CC3)nc(Sc3ccc(NC(=O)C4CC4)cc3)n2)n[nH]1 [tozasertib]
Method in brief: as §1

doramapimod = compound: Cc1ccc(-n2nc(C(C)(C)C)cc2NC(=O)Nc2ccc(OCCN3CCOCC3)c3ccccc23)cc1 [doramapimod]
Method in brief: as §1

bafetinib = compound: Cc1ccc(NC(=O)c2ccc(CN3CC[C@H](N(C)C)C3)c(C(F)(F)F)c2)cc1Nc1nccc(-c2cncnc2)n1 [bafetinib]
Method in brief: as §1

[2] = compound: Cc1cccc(CC(=O)N2CCc3c2ccc(-c2cn(C)c4ncnc(N)c24)c3F)n1
Method in brief: as §1

nilotinib = compound: Cc1cn(-c2cc(NC(=O)c3ccc(C)c(Nc4nccc(-c5cccnc5)n4)c3)cc(C(F)(F)F)c2)cn1 [nilotinib]
Method in brief: as §1

[3] = compound: Cc1nc(Nc2n[nH]c3c2CN(C(=O)N[C@H](CN(C)C)c2ccccc2)C3(C)C)c2sccc2n1
Method in brief: as §1

dasatinib = compound: Cc1nc(Nc2ncc(C(=O)Nc3c(C)cccc3Cl)s2)cc(N2CCN(CCO)CC2)n1 [dasatinib]
Method in brief: as §1

[4] = compound: Cc1ncc(-c2ccnc(Nc3ccc(S(C)(=O)=O)cc3)n2)n1C(C)C
Method in brief: as §1

[5] = compound: Cn1cc(-c2ccc3c(c2)CCN3C(=O)Cc2cccc(C(F)(F)F)c2)c2c(N)ncnc21
Method in brief: as §1

quisinostat = compound: Cn1cc(CNCC2CCN(c3ncc(C(=O)NO)cn3)CC2)c2ccccc21 [quisinostat]
Method in brief: as §1

tipifarnib = compound: Cn1cncc1[C@@](N)(c1ccc(Cl)cc1)c1ccc2c(c1)c(-c1cccc(Cl)c1)cc(=O)n2C [tipifarnib]
Method in brief: as §1

[6] = compound: NC(=O)Nc1cc(-c2cccc(F)c2)sc1C(=O)N[C@H]1CCCNC1
Method in brief: as §1

[7] = compound: NC(=O)c1cnc(N[C@@H]2CCCC[C@@H]2N)nc1Nc1cccc(-n2nccn2)c1
Method in brief: as §1

[8] = compound: NC1(c2ccc(-c3nc4ccn5c(=O)[nH]nc5c4cc3-c3ccccc3)cc2)CCC1
Method in brief: as §1

Measured: log2 fold change

CKS1B (UniProt P61024)
inactive: lapatinib 0.039 | pictilisib 0.002 | crizotinib 0.094 | duvelisib -0.045 | gandotinib -0.183 | tozasertib 0.047 | doramapimod 0.023 | bafetinib 0.068 | nilotinib -0.03 | [3] 0.04 | dasatinib 0.065 | [4] -0.066 | [5] 0.011 | quisinostat 0.069 | tipifarnib 0.106 | [6] -0.051 | [7] 0 | [8] 0.11
active: [1] 0.302 | [2] -0.324

CHD2 (UniProt O14647)
inactive: lapatinib 0.091 | pictilisib 0.063 | crizotinib -0.021 | [1] -0.15 | duvelisib 0.036 | gandotinib 0.179 | tozasertib 0.098 | doramapimod 0.136 | bafetinib 0.034 | [2] 0.249 | nilotinib -0.031 | [3] 0.003 | dasatinib -0.081 | [4] 0.035 | [5] 0.238 | quisinostat -0.027 | tipifarnib 0.004 | [6] 0 | [7] 0.085

CHMP5 (UniProt Q9NZZ3)
inactive: lapatinib 0.011 | pictilisib 0 | crizotinib 0.021 | [1] -0.037 | duvelisib -0.023 | gandotinib 0.052 | tozasertib 0.037 | doramapimod 0.015 | bafetinib 0.01 | [2] 0.003 | nilotinib 0.007 | [3] 0.038 | dasatinib 0.025 | [4] -0.02 | [5] 0.007 | quisinostat -0.036 | tipifarnib -0.029 | [6] -0.06 | [7] 0.001 | [8] -0.016

CHD3 isoform 3 (UniProt Q12873)
inactive: lapatinib -0.022 | pictilisib -0.02 | crizotinib 0.009 | [1] 0.014 | duvelisib -0.022 | gandotinib -0.013 | tozasertib -0.002 | doramapimod 0.028 | bafetinib -0.047 | [2] 0.033 | nilotinib 0.036 | [3] -0.004 | dasatinib -0.033 | [4] -0.047 | [5] 0.032 | quisinostat 0.005 | tipifarnib 0.014 | [6] 0.029 | [7] -0.002 | [8] 0.008

CMTR1 (UniProt Q8N1G2)
inactive: lapatinib -0.001 | pictilisib -0.014 | crizotinib -0.045 | [1] 0.008 | duvelisib -0.006 | gandotinib -0.072 | tozasertib 0.026 | doramapimod 0.034 | bafetinib -0.077 | [2] 0.04 | nilotinib -0.028 | [3] -0.02 | dasatinib -0.048 | [4] 0.018 | [5] 0.02 | quisinostat 0.031 | tipifarnib -0.05 | [6] 0.039 | [7] 0.019 | [8] -0.006

CIZ1 (UniProt Q9ULV3)
inactive: lapatinib -0.027 | pictilisib -0.036 | crizotinib 0.03 | [1] -0.009 | duvelisib 0.01 | gandotinib 0.063 | tozasertib 0.044 | doramapimod -0.04 | bafetinib 0.008 | [2] 0.066 | nilotinib 0.043 | [3] -0.021 | dasatinib -0.005 | [4] -0.047 | [5] 0.008 | quisinostat -0.023 | tipifarnib -0.033 | [6] 0.028 | [7] -0.024 | [8] -0.02

CHD1 (UniProt O14646)
inactive: lapatinib -0.008 | pictilisib -0.068 | crizotinib -0.108 | [1] -0.023 | duvelisib 0.014 | gandotinib -0.063 | tozasertib 0.035 | doramapimod 0.044 | bafetinib -0.005 | [2] 0.017 | nilotinib -0.038 | [3] 0.08 | dasatinib 0.161 | [4] -0.054 | [5] 0.135 | quisinostat -0.13 | tipifarnib -0.003 | [6] 0.034 | [7] -0.155 | [8] -0.033

CHMP7 (UniProt Q8WUX9)
inactive: lapatinib 0.024 | pictilisib -0.104 | crizotinib 0.034 | [1] -0.064 | duvelisib -0.049 | gandotinib 0.049 | tozasertib -0.039 | doramapimod 0.029 | bafetinib -0.174 | [2] -0.003 | nilotinib 0.029 | [3] 0.005 | dasatinib -0.075 | [4] 0.005 | [5] 0.053 | quisinostat 0.025 | tipifarnib -0.039 | [6] 0.024 | [7] -0.047 | [8] 0.007

CHD1L (UniProt Q86WJ1)
inactive: lapatinib -0.037 | pictilisib -0.045 | crizotinib -0.115 | [1] -0.011 | duvelisib 0.013 | gandotinib -0.062 | tozasertib 0.052 | doramapimod 0.128 | bafetinib -0.055 | [2] 0.038 | nilotinib -0.01 | [3] -0.012 | dasatinib -0.024 | [4] 0 | [5] 0.024 | quisinostat -0.114 | tipifarnib 0.032 | [6] 0.111 | [7] 0.028 | [8] -0.039

CHUK (UniProt O15111)
inactive: lapatinib 0.001 | pictilisib -0.031 | crizotinib -0.067 | [1] 0.112 | duvelisib 0.036 | gandotinib -0.067 | tozasertib 0.024 | doramapimod 0.008 | bafetinib -0.001 | [2] -0.048 | nilotinib -0.029 | [3] 0.015 | dasatinib -0.091 | [4] 0.035 | [5] 0.059 | quisinostat -0.131 | tipifarnib -0.015 | [6] 0.078 | [7] -0.006 | [8] -0.116

CMTM6 (UniProt Q9NX76)
inactive: lapatinib 0.02 | pictilisib 0.009 | crizotinib 0.005 | [1] 0.073 | duvelisib -0.016 | gandotinib -0.131 | tozasertib 0.086 | doramapimod -0.017 | bafetinib -0.114 | [2] -0.035 | nilotinib 0.111 | [3] -0.043 | dasatinib -0.004 | [4] 0.063 | [5] 0.057 | quisinostat 0.026 | tipifarnib -0.008 | [6] -0.008 | [7] -0.08 | [8] 0.041

CHCHD2 (UniProt Q9Y6H1)
inactive: lapatinib 0.035 | pictilisib 0 | crizotinib 0.119 | [1] 0.044 | duvelisib -0.008 | gandotinib 0.021 | tozasertib 0.102 | doramapimod -0.021 | bafetinib 0.288 | [2] -0.138 | nilotinib -0.102 | [3] 0.039 | dasatinib 0.016 | [4] -0.075 | [5] 0.031 | quisinostat -0.049 | tipifarnib 0.058 | [6] -0.014 | [7] -0.029 | [8] 0.136

CHCHD7 isoform 4 (UniProt Q9BUK0)
inactive: lapatinib 0.079 | pictilisib 0.06 | crizotinib -0.052 | duvelisib -0.01 | gandotinib 0.266 | tozasertib -0.077 | doramapimod 0.026 | bafetinib -0.001 | [2] 0.187 | nilotinib -0.147 | [3] 0.031 | dasatinib -0.044 | [4] -0.147 | [5] 0.041 | quisinostat -0.207 | tipifarnib -0.117 | [6] 0.055 | [7] -0.04
active: [1] -0.382

Looked up one by one from the list above, two records:
CIZ1 (UniProt Q9ULV3)
inactive: lapatinib -0.027 | pictilisib -0.036 | crizotinib 0.03 | [1] -0.009 | duvelisib 0.01 | gandotinib 0.063 | tozasertib 0.044 | doramapimod -0.04 | bafetinib 0.008 | [2] 0.066 | nilotinib 0.043 | [3] -0.021 | dasatinib -0.005 | [4] -0.047 | [5] 0.008 | quisinostat -0.023 | tipifarnib -0.033 | [6] 0.028 | [7] -0.024 | [8] -0.02

CHD2 (UniProt O14647)
inactive: lapatinib 0.091 | pictilisib 0.063 | crizotinib -0.021 | [1] -0.15 | duvelisib 0.036 | gandotinib 0.179 | tozasertib 0.098 | doramapimod 0.136 | bafetinib 0.034 | [2] 0.249 | nilotinib -0.031 | [3] 0.003 | dasatinib -0.081 | [4] 0.035 | [5] 0.238 | quisinostat -0.027 | tipifarnib 0.004 | [6] 0 | [7] 0.085

Continuation.

CHEK1 (UniProt O14757)
active: [6] 0.242
inactive: lapatinib -0.008 | pictilisib -0.003 | crizotinib -0.021 | [1] 0.174 | duvelisib -0.009 | gandotinib -0.014 | tozasertib 0.017 | doramapimod 0.04 | bafetinib -0.025 | [2] 0.015 | nilotinib -0.011 | [3] -0.158 | dasatinib 0.02 | [4] -0.048 | [5] -0.007 | quisinostat -0.032 | tipifarnib 0.016 | [7] 0.003 | [8] -0.042

CIAPIN1 (UniProt Q6FI81)
inactive: lapatinib -0.012 | pictilisib -0.007 | crizotinib 0.025 | [1] -0.032 | duvelisib 0.009 | gandotinib 0.032 | tozasertib -0.01 | doramapimod -0.008 | bafetinib 0.001 | [2] 0.004 | nilotinib 0.004 | [3] -0.009 | dasatinib 0.022 | [4] -0.002 | [5] -0.025 | quisinostat -0.029 | tipifarnib 0.017 | [6] -0.009 | [7] -0.016 | [8] 0.011

CIAO2A (UniProt Q9H5X1)
inactive: lapatinib 0.007 | pictilisib -0.058 | crizotinib -0.014 | [1] 0.181 | duvelisib -0.01 | gandotinib 0 | tozasertib 0.042 | doramapimod 0.11 | bafetinib -0.015 | nilotinib -0.018 | [3] 0.033 | dasatinib -0.037 | [4] -0.074 | [5] 0.011 | quisinostat 0.011 | tipifarnib -0.067 | [6] -0.004 | [7] -0.027 | [8] -0.038
active: [2] -0.276
